No constants are given. Whether binding was seen depends on the method and setting. Some results given as binding are weak or reduced against the parent protein; the word gives no strength.
Molecular target: TRKB, endogenous in rat cortical cells (rat (endogenous in cultured cortical cells)) (UniProt Q63604)
Assay: ELISA; sandwich ELISA on cell lysates: plate coated with capturing anti-TRKB or anti-PLC-γ1 antibody, lysate overnight at 4°C, detection with antibody against PLC-γ1 or pTRKB.Y816 and HRP-conjugate, ECL; cells treated before lysis with BDNF, NGF, cholesterol, β-cyclodextrin, pravastatin or antidepressants

Protein sequences, listed by entry. Tags and fused reporters are not part of them. Residues count along the entry.
UniProt Q63604, residues 32-821: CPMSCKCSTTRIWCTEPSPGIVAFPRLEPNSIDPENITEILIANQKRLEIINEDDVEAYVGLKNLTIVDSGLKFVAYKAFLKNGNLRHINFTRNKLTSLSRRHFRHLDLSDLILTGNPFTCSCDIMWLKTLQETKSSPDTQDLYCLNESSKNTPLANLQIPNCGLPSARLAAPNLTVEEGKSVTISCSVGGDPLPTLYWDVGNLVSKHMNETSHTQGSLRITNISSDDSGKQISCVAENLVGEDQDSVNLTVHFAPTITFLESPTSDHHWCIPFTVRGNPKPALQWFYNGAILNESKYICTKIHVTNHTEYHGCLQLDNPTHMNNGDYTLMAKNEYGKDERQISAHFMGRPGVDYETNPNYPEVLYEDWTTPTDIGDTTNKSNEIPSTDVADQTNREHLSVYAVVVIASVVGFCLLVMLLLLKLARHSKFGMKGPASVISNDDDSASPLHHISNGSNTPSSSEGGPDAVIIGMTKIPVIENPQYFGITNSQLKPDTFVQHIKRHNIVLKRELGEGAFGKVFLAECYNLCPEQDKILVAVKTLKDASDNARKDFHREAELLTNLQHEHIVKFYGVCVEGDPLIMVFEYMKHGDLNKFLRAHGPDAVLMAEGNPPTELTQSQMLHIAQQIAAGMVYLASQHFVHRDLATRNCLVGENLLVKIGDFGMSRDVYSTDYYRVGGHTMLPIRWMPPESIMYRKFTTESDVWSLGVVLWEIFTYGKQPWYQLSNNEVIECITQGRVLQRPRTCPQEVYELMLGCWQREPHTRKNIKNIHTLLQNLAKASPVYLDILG

B1: phospholipase C-γ1 (PLC-γ1), endogenous in rat cortical cells (enzyme, UniProt P10686 1-1290)
chain: MAGVGTPCANGCGPSAPSEAEVLHLCRSLEVGTVMTLFYSKKSQRPERKTFQVKLETRQITWSRGADKIEGSIDIREIKEIRPGKTSRDFDRYQEDPAFRPDQSHCFVILYGMEFRLKTLSLQATSEDEVNMWIKGLTWLMEDTLQAATPLQIERWLRKQFYSVDRNREDRISAKDLKNMLSQVNYRVPNMRFLRERLTDFEQRSGDITYGQFAQLYRSLMYSAQKTMDLPFLETNTLRTGERPELCQVSLSEFQQFLLEYQGELWAVDRLQVQEFMLSFLRDPLREIEEPYFFLDELVTFLFSKENSVWNSQLDAVCPETMNNPLSHYWISSSHNTYLTGDQFSSESSLEAYARCLRMGCRCIELDCWDGPDGMPVIYHGHTLTTKIKFSDVLHTIKEHAFVASEYPVILSIEDHCSIAQQRNMAQHFRKVLGDTLLTKPVDIAADGLPSPNQLKRKILIKHKKLAEGSAYEEVPTSVMYSENDISNSIKNGILYLEDPVNHEWYPHYFVLTSSKIYYSEETSSDQGNEDEEEPKEASGSTELHSSEKWFHGKLGAGRDGRHIAERLLTEYCIETGAPDGSFLVRESETFVGDYTLSFWRNGKVQHCRIHSRQDAGTPKFFLTDNLVFDSLYDLITHYQQVPLRCNEFEMRLSEPVPQTNAHESKEWYHASLTRAQAEHMLMRVPRDGAFLVRKRNEPNSYAISFRAEGKIKHCRVQQEGQTVMLGNSEFDSLVDLISYYEKHPLYRKMKLRYPINEEALEKIGTAEPDYGALYEGRNPGFYVEANPMPTFKCAVKALFDYKAQREDELTFTKSAIIQNVEKQDGGWWRGDYGGKKQLWFPSNYVEEMINPAILEPEREHLDENSPLGDLLRGVLDVPACQIAIRPEGKNNRLFVFSISMPSVAQWSLDVAADSQEELQDWVKKIREVAQTADARLTEGKMMERRKKIALELSELVVYCRPVPFDEEKIGTERACYRDMSSFPETKAEKYVNKAKGKKFLQYNRLQLSRIYPKGQRLDSSNYDPLPMWICGSQLVALNFQTPDKPMQMNQALFMAGGHCGYVLQPSTMRDEAFDPFDKSSLRGLEPCVICIEVLGARHLPKNGRGIVCPFVEIEVAGAEYDSTKQKTEFVVDNGLNPVWPAKPFHFQISNPEFAFLRFVVYEEDMFSDQNFLAQATFPVKGLKTGYRAVPLKNNYSEDLELASLLIKIDIFPAKENGDLSPFSGTSLRERASDASSQLFHVRAREGSFEARYQQPFEDFRISQEHLADHFDSRERRAPRRTRVNGDNRL
**Q.** For B1, which binding is on record?
**A.** binds

— paper PMC7938888, “Antidepressant drugs act by directly binding to TRKB neurotrophin receptors” (Cell, 2021)
